Data on one sequence can be found in PMC6698656.

The chains behind the UniProt entries cited, without tags or fusion partners. Residues count along the entry.
UniProt Q8WVM0, 28-346: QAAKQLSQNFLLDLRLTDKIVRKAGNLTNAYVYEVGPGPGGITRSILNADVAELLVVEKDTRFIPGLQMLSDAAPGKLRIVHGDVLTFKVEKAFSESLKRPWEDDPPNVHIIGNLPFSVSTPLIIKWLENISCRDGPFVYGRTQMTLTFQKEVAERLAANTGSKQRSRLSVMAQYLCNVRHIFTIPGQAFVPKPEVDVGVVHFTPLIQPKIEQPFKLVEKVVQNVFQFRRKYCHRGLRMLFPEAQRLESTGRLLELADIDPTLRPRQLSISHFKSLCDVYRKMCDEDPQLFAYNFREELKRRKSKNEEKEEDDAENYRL
UniProt Q8WVM0, 28-346 P143A/F144A/S145A: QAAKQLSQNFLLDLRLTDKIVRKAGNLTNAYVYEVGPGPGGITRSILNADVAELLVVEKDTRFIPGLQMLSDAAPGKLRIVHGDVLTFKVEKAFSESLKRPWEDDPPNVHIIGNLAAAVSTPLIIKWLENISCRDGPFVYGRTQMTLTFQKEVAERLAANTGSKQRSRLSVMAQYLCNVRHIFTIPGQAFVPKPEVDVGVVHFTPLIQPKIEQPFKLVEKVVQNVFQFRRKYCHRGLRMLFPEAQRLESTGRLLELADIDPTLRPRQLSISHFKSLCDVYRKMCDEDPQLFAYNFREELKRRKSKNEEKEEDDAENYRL
UniProt Q8WVM0, 28-346 R183E/R256E/R257E: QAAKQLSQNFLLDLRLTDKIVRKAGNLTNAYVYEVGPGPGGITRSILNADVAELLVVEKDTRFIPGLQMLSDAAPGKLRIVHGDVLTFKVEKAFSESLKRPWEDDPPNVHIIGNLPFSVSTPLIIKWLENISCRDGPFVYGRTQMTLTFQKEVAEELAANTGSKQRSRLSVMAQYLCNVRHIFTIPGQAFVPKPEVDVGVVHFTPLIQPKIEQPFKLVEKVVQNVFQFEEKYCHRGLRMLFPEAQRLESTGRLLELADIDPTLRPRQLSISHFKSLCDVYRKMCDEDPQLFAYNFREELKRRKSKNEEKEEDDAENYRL

Common to all, as to test: EMSA
On the technique in general: In EMSA bound probe runs differently from free probe, usually more slowly.

The target in series [1] is hsTFB1M (Homo sapiens) (UniProt Q8WVM0). To be noted: apparent Kd only in figure; EMSA: 50 mM Tris-HCl pH 8.0, 25 mM NaCl, 100 nM RNA, 37 C 30 min; 6% native PAGE, 0.5x TBE; recombinant protein; residues 28-346; protein details: His6-MBP N-terminal, removed by TEV; label: 5'-FAM.
In series [2] the target is hsTFB1M P143A/F144A/S145A (Homo sapiens) (UniProt Q8WVM0). To be noted: not significantly impaired, only R183E/R256E/R257E was; EMSA: 50 mM Tris-HCl pH 8.0, 25 mM NaCl, 100 nM RNA, 37 C 30 min; 6% native PAGE, 0.5x TBE; recombinant protein; residues 28-346; protein details: His6-MBP N-terminal, removed by TEV; label: 5'-FAM.
The target in series [3] is hsTFB1M R183E/R256E/R257E (Homo sapiens) (UniProt Q8WVM0). Conditions: apparent Kd far greater than 2 uM; EMSA: 50 mM Tris-HCl pH 8.0, 25 mM NaCl, 100 nM RNA, 37 C 30 min; 6% native PAGE, 0.5x TBE; recombinant protein; residues 28-346; protein details: His6-MBP N-terminal, removed by TEV; label: 5'-FAM.

For part of these data: Construct, isoform or probe ends are uncertain for at least one entry. For part of these data: At least one verdict was read from the data and is not stated in words by the source.

“GGUAAGUGUACUGGAAAGUGCACUUGCC [5'-FAM h45 RNA (WT)]”: the binding result in series [1] and in series [2] was “binds” in each case. The Kd in series [3] is above 2000 nM.
